Measured values published in publication PMC7062741.
No constants are given. Whether binding was seen depends on the method and setting. Binding seen in cells or lysates may run through a third protein. Some binding calls cover weakened binding; strength is not graded here.

T1: CD151 tetraspanin (mouse (endogenous in epididymal sperm)) (UniProt O35566)
T1 sequence: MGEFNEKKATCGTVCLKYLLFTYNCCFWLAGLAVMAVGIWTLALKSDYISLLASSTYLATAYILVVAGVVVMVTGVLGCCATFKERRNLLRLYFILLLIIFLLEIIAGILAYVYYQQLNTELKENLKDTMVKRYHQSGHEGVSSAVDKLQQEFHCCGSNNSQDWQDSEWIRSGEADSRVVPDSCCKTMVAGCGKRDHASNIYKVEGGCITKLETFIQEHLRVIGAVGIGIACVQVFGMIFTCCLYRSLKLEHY


Molecular target: T1, CD151 tetraspanin (mouse (endogenous in epididymal sperm))
Experiment: co-IP; mouse epididymal sperm (5 x 10^7) lysed in 20 mM Tris-HCl, 137 mM NaCl, pH 8 with 1% CHAPS at 4 °C; precipitated with polyclonal anti-CD151 (ab125363) and Protein A/G agarose; blot with anti-α6 (F-6) or anti-α3 (H-43) integrin antibody; rabbit IgG as control

Row | binding | Binder
1 | no binding | α3 integrin subunit (protein, UniProt Q62470 33-1053) FNLDTRFLVVKEAVNPGSLFGYSVALHRQTERQQRYLLLAGAPRDLAVGDDYTNRTGAVYLCPLTAHKDDCERMDISEKSDPDHHIIEDMWLGVTVASQGPAGRVLVCAHRYTKVLWSGLEDQRRMVGKCYVRGNDLQLDPGDDWQTYHNEMCNSNTDYLQTGMCQLGTSGGFTQNTVYFGAPGAYNWKGNSYMIQRKDWDLSEYSYRGSEEQGNLYIGYTVQVGNAILHPTDIITVVTGAPRHQHMGAVFLLKQESGGDLQRKQVLKGTQVGAYFGSAIALADLNNDGWQDLLVGAPYYFERKEEVGGAVYVFMNQAGASFPDQPSLLLHGPSRSAFGISIASIGDINQDGFQDIAVGAPFEGLGKVYIYHSSSGGLLRQPQQIIHGEKLGLPGLATFGYSLSGKMDVDENLYPDLLVGSLSDHIVLLRARPVINILHRTLVARPAVLDPALCTATSCVQVELCFAYNQSAGNPNYRRNITLAYTLEADRDRRPPRLRFARSQSSVFHGFFSMPETHCQTLELLLMDNVRDKLRPIVIAMNYSLPLRMPDRLKLGLRSLDAYPVLNQAQAMENHTEVHFQKECGPDNKCDSNLQMRAAFLSEQLQPLSRLQYSRDTKKLFLSINVTNSPSSQRAGEDAHEALLTLEVPSALLLSSVRPSGTCQANNETILCELGNPFKRNQRMELLIAFEVIGVTLHTRDLPVLLQLSTSSHQDNLQPVLLTLQVDYTLQASLSLMNHRLQSFFGGTVMGEAAMKTAEDVGSPLKYEFQVSPVGDGLAALGTLVLGLEWPYEVTNGKWLLYPTEITIHSNGSWPCQPSGNLVNPLNLTLSDPGVTPLSPQRRRRQLDPGGDQSSPPVTLAAAKKAKSETVLTCSNGRARCVWLECPLPDTSNITNVTVKARVWNSTFIEDYKDFDRVRVDGWATLFLRTSIPTINMENKTTWFSVDIDSELVEELPAEIELWLVLVAVGAGLLLLGLIILLLWKCGFFKRARTRALYEAKRQKAEMKSQPSETERLTDDY
2 | binds | α6 integrin subunit (protein, UniProt Q61739 24-1091) FNLDTREDNVIRKSGDPGSLFGFSLAMHWQLQPEDKRLLLVGAPRAEALPLQRANRTGGLYSCDITSRGPCTRIEFDNDADPMSESKEDQWMGVTVQSQGPGGKVVTCAHRYEKRQHVNTKQESRDIFGRCYVLSQNLRIEDDMDGGDWSFCDGRLRGHEKFGSCQQGVAATFTKDFHYIVFGAPGTYNWKGIVRVEQKNNTFFDMNIFEDGPYEVGGETDHDESLVPVPANSYLGFSLDSGKGIVSKDDITFVSGAPRANHSGAVVLLKRDMKSAHLLPEYIFDGEGLASSFGYDVAVVDLNADGWQDIVIGAPQYFDRDGEVGGAVYVYINQQGKWSNVKPIRLNGTKDSMFGISVKNIGDINQDGYPDIAVGAPYDDLGKVFIYHGSPTGIITKPTQVLEGTSPYFGYSIAGNMDLDRNSYPDLAVGSLSDSVTIFRSRPVINILKTITVTPNRIDLRQKSMCGSPSGICLKVKACFEYTAKPSGYNPPISILGILEAEKERRKSGLSSRVQFRNQGSEPKYTQELTLNRQKQRACMEETLWLQENIRDKLRPIPITASVEIQEPSSRRRVNSLPEVLPILNSNEAKTVQTDVHFLKEGCGDDNVCNSNLKLEYKFGTREGNQDKFSYLPIQKGIPELVLKDQKDIALEITVTNSPSDPRNPRKDGDDAHEAKLIATFPDTLTYSAYRELRAFPEKQLSCVANQNGSQADCELGNPFKRNSSVTFYLILSTTEVTFDTTDLDINLKLETTSNQDNLAPITAKAKVVIELLLSVSGVAKPSQVYFGGTVVGEQAMKSEDEVGSLIEYEFRVINLGKPLKNLGTATLNIQWPKEISNGKWLLYLMKVESKGLEQIVCEPHNEINYLKLKESHNSRKKRELPEKQIDDSRKFSLFPERKYQTLNCSVNVRCVNIRCPLRGLDSKASLVLRSRLWNSTFLEEYSKLNYLDILLRASIDVTAAAQNIKLPHAGTQVRVTVFPSKTVAQYSGVAWWIILLAVLAGILMLALLVFLLWKCGFFKRSRYDDSIPRYHAVRIRKEEREIKDEKHMDNLEKKQWITKWNENESYS
